Patent US20240287164A1, “ANTIBODIES SPECIFIC TO NELL2 AND METHODS OF USE” (BOARD OF REGENTS, THE UNIVERSITY OF TEXAS SYSTEM, priority 2021, published 2024)
Results are given in words; binding and its absence hold for the method and conditions named. Some binding calls cover weakened binding; strength is not graded here.

Sequences of proteins named here, by UniProt entry; tags and fusion partners are left off. Residues count along the entry.
UniProt Q99435, residues 22-816: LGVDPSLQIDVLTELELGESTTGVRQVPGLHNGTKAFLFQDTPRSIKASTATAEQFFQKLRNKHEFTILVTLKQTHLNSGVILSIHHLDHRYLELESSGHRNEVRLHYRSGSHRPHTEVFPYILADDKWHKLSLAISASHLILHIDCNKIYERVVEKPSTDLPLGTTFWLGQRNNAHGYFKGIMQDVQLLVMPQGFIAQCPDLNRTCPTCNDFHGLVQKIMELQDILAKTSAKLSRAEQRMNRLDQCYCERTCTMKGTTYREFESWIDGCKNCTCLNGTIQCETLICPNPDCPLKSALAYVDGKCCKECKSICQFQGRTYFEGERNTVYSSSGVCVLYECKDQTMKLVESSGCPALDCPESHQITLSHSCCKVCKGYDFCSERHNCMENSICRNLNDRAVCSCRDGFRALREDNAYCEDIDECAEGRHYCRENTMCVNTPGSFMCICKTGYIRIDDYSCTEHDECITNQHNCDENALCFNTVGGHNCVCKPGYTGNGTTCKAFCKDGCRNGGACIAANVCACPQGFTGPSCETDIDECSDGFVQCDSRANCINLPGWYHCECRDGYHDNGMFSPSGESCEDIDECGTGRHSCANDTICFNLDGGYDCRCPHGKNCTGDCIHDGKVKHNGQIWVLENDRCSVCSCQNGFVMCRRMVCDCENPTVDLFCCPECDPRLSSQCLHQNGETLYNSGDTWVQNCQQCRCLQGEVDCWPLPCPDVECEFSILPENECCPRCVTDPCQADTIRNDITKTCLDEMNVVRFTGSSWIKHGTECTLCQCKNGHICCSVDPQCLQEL

How the values were obtained:
[1] = molecular target: T1, Robo3 (endogenous, on A-673 Ewing sarcoma cells) (human) (UniProt Q96MS0); assay: ligand-binding assay on A-673 cells, anti-FLAG immunoblot of whole cell lysate
T1 sequence (looked up): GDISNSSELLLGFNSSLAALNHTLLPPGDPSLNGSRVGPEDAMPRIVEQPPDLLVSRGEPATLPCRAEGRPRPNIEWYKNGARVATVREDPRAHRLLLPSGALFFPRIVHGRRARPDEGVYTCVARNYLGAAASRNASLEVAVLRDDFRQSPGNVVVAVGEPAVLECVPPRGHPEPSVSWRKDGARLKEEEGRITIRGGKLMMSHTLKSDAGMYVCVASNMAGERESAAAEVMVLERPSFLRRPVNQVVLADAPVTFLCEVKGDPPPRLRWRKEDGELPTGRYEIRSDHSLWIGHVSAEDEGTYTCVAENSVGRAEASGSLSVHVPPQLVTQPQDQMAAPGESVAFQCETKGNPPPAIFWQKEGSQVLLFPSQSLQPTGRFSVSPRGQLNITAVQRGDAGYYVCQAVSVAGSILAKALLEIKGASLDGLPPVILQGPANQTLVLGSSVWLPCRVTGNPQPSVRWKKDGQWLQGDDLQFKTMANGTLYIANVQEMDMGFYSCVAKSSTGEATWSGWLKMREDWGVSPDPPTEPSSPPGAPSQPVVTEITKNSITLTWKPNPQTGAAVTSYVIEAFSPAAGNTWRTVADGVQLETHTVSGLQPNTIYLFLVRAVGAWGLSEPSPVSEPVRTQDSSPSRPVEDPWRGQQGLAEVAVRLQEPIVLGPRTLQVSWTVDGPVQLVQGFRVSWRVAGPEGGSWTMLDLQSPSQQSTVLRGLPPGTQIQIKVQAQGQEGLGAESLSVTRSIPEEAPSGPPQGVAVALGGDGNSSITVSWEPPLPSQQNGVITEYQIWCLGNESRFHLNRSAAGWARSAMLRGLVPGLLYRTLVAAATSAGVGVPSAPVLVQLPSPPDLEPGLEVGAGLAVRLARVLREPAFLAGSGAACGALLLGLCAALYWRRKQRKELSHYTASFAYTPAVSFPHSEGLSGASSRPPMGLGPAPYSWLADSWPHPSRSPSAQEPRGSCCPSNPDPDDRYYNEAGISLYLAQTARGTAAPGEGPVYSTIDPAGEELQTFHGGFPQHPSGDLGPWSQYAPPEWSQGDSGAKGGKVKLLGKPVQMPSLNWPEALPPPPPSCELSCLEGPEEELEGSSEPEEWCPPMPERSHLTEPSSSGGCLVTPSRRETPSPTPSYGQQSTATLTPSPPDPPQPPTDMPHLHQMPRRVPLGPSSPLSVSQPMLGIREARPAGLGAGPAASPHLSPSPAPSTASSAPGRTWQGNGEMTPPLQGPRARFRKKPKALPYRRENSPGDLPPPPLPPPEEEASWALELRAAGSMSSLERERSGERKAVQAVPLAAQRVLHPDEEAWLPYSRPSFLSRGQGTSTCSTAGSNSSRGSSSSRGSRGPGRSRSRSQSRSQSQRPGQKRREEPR

[2] = molecular target: T1, Robo3 (endogenous, on A-673 Ewing sarcoma cells) (human); assay: ligand-binding assay: NELL2-FLAG incubated with A-673 cells for 0, 2, 4, 6, 8 or 24 hours, cells washed, whole cell lysate immunoblotted
[3] = molecular target: T1, Robo3 (endogenous, on A-673 Ewing sarcoma cells) (human); assay: ligand-binding assay on A-673 cells (FIG. 2B legend)

binding [1]: binds | binding [2]: binds | binding [3]: binds
Substance: C-terminally FLAG-tagged NELL2 (from UniProt Q99435 22-816) (ligand)
